# Reference: US11866474B2 (UNIVERSITY OF SOUTH FLORIDA, priority 2021, dated 2024)
# Test: general procedure: Fmoc solid-phase peptide synthesis; Fmoc-Rink Amide MBHA resin (0.6 mmol/g, 200-400 mesh; Chem-Impex International); HOBt/DIC
# Details: whole synthesis, analytical HPLC (Waters Breeze 2), 1 mL/min, scale of the general procedure 100 mg resin
substance,measurement,value
Ac-KLTWQELYQLKYKGI,final HPLC purity,99.1%
